These are yes or no findings as the source states them, for the method shown. Binding seen in cells or lysates may run through a third protein. Binding calls can cover weak binding; strength is not graded here. Where a sequence is shown, tags or fusion partners need not be part of it.
Tests used:
[1] = target: T1, GP64, BmNPV envelope fusion protein (Bombyx mori nucleopolyhedrovirus (BmNPV)) (UniProt P41722); test: co-IP; GP64 and Flag-tagged BmREEPa over-expressed together in BmN-SWU1 cells, lysed 72 h post-transfection; anti-Flag or anti-GP64 antibody on protein A magnetic beads; eluted proteins blotted with anti-GP64 and anti-Flag respectively; IgG as control
T1 sequence: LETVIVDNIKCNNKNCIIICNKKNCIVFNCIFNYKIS

[2] = target: BmREEPa with Flag tags (Bombyx mori); test: as above

BmREEPa with Flag tags (Bombyx mori) was tested, and the binding [1] was “binds”.

B1: GP64, BmNPV envelope fusion protein (peptide, UniProt P41722 1-37)
chain: LETVIVDNIKCNNKNCIIICNKKNCIVFNCIFNYKIS
For B1, the binding [2] was “binds”.

Reference: PMC4681539
